Assay results published in paper PMC10128056.

Biological target: T1, L. monocytogenes GlmS (L. monocytogenes) (UniProt Q8Y915)
T1 sequence: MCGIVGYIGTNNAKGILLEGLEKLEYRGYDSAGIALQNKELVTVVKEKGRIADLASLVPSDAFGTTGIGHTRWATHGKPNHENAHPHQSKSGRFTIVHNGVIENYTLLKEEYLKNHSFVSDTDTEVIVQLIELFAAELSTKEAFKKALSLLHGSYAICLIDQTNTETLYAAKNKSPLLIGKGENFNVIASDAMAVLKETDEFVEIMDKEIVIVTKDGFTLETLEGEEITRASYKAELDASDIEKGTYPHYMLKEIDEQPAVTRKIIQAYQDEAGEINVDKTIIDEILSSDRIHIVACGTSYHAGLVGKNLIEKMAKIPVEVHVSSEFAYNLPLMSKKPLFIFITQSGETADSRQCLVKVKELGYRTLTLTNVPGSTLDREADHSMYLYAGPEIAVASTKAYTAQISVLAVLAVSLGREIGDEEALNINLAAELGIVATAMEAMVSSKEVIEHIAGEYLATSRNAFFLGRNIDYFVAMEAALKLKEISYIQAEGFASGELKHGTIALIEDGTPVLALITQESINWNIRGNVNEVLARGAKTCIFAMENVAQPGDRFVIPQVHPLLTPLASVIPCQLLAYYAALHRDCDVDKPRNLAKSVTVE
Test: two-hybrid; BACTH bacterial two-hybrid in BTH101 E. coli; each protein as N- and C-terminal fusion to T18 and T25; blue-white assay on X-Gal plates (24 h at 30°C, four replicates) and quantitative β-galactosidase assays (triplicate, normalised to the Zip positive control)

L. monocytogenes GlmR
binding: no binding

These are yes or no findings as the source states them, for the method shown.
